Reference: PMC10202959
These are yes or no findings as the source states them, for the method shown. Some binding calls cover weakened binding; strength is not graded here.

By UniProt entry, the sequences of proteins in these tests, tags left out. Residues count along the entry.
UniProt P04004, residues 20-478: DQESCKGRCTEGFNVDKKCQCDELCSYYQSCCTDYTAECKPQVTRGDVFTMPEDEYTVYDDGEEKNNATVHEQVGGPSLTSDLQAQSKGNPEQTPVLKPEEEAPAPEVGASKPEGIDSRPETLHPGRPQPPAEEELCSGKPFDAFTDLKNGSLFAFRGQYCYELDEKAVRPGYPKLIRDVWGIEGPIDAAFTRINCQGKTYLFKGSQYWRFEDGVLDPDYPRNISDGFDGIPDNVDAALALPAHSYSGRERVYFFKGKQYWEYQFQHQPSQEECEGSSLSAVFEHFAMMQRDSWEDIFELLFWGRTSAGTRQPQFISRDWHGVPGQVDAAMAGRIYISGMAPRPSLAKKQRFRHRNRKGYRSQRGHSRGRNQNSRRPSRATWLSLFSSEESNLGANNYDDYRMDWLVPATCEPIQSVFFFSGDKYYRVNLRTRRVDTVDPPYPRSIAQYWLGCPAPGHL
UniProt P24821, residues 23-2201: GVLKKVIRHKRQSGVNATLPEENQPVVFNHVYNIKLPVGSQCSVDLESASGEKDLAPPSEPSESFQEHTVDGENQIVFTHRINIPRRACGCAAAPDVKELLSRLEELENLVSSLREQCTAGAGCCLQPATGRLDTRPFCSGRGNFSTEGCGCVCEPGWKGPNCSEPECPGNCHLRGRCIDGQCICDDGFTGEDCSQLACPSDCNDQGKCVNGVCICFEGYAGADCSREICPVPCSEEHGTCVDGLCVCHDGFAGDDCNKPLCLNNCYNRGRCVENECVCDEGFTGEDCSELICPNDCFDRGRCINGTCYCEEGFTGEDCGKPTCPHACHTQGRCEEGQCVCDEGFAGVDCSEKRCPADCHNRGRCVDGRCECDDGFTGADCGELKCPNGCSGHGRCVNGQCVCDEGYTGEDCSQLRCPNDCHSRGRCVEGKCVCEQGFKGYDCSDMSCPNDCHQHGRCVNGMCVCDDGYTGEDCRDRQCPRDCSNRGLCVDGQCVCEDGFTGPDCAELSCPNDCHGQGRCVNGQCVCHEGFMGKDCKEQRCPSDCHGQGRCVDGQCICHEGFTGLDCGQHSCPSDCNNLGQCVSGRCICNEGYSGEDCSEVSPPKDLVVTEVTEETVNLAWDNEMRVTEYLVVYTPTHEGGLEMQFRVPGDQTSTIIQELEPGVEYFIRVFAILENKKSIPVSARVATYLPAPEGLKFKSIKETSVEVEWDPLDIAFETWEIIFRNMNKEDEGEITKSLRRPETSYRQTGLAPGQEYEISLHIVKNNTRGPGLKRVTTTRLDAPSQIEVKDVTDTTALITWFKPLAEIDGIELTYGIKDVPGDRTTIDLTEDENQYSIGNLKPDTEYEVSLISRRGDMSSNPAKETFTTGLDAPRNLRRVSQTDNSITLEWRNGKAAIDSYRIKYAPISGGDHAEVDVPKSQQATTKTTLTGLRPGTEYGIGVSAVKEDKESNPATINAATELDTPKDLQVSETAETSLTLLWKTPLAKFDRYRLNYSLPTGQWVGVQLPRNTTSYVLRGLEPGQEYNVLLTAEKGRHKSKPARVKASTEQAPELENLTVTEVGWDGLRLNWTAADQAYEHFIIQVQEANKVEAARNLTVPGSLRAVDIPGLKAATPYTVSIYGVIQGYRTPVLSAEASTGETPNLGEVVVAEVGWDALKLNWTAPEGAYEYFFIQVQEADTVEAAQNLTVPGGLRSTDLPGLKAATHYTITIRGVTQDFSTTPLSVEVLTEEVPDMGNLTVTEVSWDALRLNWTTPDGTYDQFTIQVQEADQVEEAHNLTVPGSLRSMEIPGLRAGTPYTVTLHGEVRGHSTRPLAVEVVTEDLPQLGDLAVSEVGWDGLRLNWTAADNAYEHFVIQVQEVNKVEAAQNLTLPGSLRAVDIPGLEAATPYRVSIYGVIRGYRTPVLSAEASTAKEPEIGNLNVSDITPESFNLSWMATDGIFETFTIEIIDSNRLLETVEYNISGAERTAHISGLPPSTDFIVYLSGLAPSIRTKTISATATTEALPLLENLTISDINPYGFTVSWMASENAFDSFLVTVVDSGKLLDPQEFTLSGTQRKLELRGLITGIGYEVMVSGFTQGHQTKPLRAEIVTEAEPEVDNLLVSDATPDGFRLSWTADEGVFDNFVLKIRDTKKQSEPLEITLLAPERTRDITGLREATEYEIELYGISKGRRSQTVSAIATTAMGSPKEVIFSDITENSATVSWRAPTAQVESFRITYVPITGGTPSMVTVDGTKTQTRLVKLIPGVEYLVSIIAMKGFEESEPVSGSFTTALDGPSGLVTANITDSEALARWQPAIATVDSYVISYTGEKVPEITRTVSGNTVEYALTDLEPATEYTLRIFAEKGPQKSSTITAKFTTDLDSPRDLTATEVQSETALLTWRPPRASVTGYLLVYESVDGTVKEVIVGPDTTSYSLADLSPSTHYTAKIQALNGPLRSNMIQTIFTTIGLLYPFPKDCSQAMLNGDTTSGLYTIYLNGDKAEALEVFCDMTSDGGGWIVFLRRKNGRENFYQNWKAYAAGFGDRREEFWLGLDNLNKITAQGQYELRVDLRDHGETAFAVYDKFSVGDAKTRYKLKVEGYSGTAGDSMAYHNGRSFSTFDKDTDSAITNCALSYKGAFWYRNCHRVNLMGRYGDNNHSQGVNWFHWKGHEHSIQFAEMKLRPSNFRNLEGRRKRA
UniProt P31240, residues 82-190: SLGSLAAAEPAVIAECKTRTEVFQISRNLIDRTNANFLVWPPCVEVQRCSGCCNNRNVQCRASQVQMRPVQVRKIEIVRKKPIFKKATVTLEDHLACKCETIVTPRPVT

Key:
[1] = target: T1, amphiregulin (AREG) (human) (UniProt P15514); assay: ELISA; by the methods: plates coated with 100 nM PlGF-2, AREG or NRTN, ECM proteins at increasing concentration in PBS-T with 0.1% BSA, detected with HRP-conjugated antibodies against ECM proteins; KD from a one site specific binding model (the legend of Fig. 1e tells the reverse orientation); both purified
T1 sequence: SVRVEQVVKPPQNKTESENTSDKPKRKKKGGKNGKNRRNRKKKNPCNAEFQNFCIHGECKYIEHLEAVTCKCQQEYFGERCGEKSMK

[2] = target: T2, neurturin (NRTN) (human) (UniProt Q99748); assay: as above
T2 sequence: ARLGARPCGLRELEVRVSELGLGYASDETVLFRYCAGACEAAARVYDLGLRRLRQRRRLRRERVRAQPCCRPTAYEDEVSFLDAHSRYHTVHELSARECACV

[3] = target: T3, placenta growth factor PlGF-2 (human) (UniProt P49763); assay: as above
T3 sequence: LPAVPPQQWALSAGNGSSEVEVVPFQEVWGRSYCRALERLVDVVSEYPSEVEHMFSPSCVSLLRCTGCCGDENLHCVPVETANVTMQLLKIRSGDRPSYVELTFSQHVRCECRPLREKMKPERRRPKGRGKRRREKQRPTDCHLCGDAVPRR

[4] = target: T1, amphiregulin (AREG) (human); assay: ELISA; plates coated with 100 nM protein candidate or BSA, blocked with 1% BSA; 100 nM ECM protein in PBS-T with 0.1% BSA, 1 h at 37 °C; bound ECM protein detected with HRP-conjugated antibodies; fold change over BSA control; both purified
[5] = target: T2, neurturin (NRTN) (human); assay: as above
[6] = target: human vitronectin (human) (UniProt P04004); assay: ELISA; plates coated with 100 nM ECM protein in PBS; PDGF-BB or IL-1Ra variants at increasing concentrations in PBS-T with 0.1% BSA, 1 h at room temperature; detected with biotinylated antibodies; KD from a one site specific binding model; both purified
[7] = target: human tenascin C (human) (UniProt P24821); assay: as above

Measured: binding

human tenascin C (from UniProt P24821 23-2201)
not listed: [6] | [7]
binds: all other assays above

platelet-derived growth factor-BB (PDGF-BB), wild type (from UniProt P31240 82-190) (ligand)
binds: [6] | [7]
